Test results: PubChem BioAssay AID298 (DTP/NCI, 2004)
The list does not hold the whole screen: it gathers tests that were run many times, whatever their T/C, doses with no T/C, and many T/C values between a quarter and a half above the control. Other doses and runs of a compound stand elsewhere. T/C: endpoint of the treated group in % of that of the vehicle group. Schedules are NCI's codes, taken here to give the interval after Q, in days (D) or hours (H), and the number of doses after X. Some entries give survivors of the animals treated and no T/C: the source files T/C as zero there, which appears to mark a toxic dose or a test without result, not a measured value. Survivors were counted at the toxicity check, usually on the fifth day, unless a day is given; later deaths do not show. Some entries hold several experiments; the values are given in rising order.

System: MX-1 breast xenograft, intrarenal, nude mice, tumor weight
Assay: NCI In Vivo Anticancer Drug Screen. Data for tumor model Human Mammary Carcinoma MX-1 Xenograft (intrarenal inoculation) in NU/NU BALB/C (nude) mice
Conditions: T/C endpoint: mean tumor weight change, higher T/C = larger tumour; for T/C: evaluated on day 11
Protocol: The antitumor activity of compounds was measured in mice bearing transplantable tumors. Survival or tumor size were measured and the results are expressed as the measurement made in the treated group (T) divided by the measurement made in the vehicle treated control group (C). The tumor model used in this assay is Human Mammary Carcinoma MX-1 Xenograft (intrarenal inoculation) in NU/NU BALB/C (nude) mice

[1] = dose: 300.0 mg/kg/injection, schedule: Q04DX003 (ip), vehicle: saline with Tween-80
[2] = dose: 600.0 mg/kg/injection, schedule: Q04DX003 (ip), vehicle: saline with Tween-80
[3] = dose: 1200.0 mg/kg/injection, schedule: Q04DX003 (ip), vehicle: saline with Tween-80
[4] = dose: 75.0 mg/kg/injection, schedule: Q04DX003 (ip), vehicle: Klucel (hydroxypropylcellulose) (HPC)
[5] = dose: 300.0 mg/kg/injection, schedule: Q04DX003 (ip), vehicle: Klucel (hydroxypropylcellulose) (HPC)
[6] = dose: 600.0 mg/kg/injection, schedule: Q04DX003 (ip), vehicle: Klucel (hydroxypropylcellulose) (HPC)
[7] = dose: 400.0 mg/kg/injection, schedule: Q04DX003 (ip), vehicle: saline with Tween-80
[8] = dose: 600.0 mg/kg/injection, schedule: Q04DX003 (ip), vehicle: saline

In the case of `O=C1C2CC(Cl)C(SSC3CC4C(=O)N(SC(Cl)(Cl)C(Cl)Cl)C(=O)C4CC3Cl)CC2C(=O)N1SC(Cl)(Cl)C(Cl)Cl` (centres undefined), the survivor count [1] is reported as 0 of 6 on day 11 and the survivor count [2] is reported as 0 of 6 on day 11.

For `CCCC1CCC(=C2C(=O)CCC2=O)O1` (centres undefined), the survivor count [1] was 3 of 6 on day 11, the survivor count [2] was 1 of 6 on day 11 and the survivor count [3] was 0 of 6 on day 11.

In the case of `COc1ccc(C(C)c2cc3c(cc2OC)OCO3)cc1` (centres undefined), the survivor count (dose: 150.0 mg/kg/injection, schedule: Q04DX003 (ip), vehicle: saline with Tween-80) is reported as 1 of 6 on day 11, the survivor count [1] is reported as 0 of 6 on day 11 and the survivor count [2] is reported as 0 of 6 on day 11. For the same compound, the survivor count [3] was 0 of 6 on day 11.

With `Nc1nncs1` the survivor count (dose: 100.0 mg/kg/injection, schedule: Q01DX010 (sc), vehicle: saline) was 0 of 3 on day 11, the survivor count (dose: 200.0 mg/kg/injection, schedule: Q01DX010 (sc), vehicle: saline) was 0 of 3 on day 11 and the survivor count (dose: 400.0 mg/kg/injection, schedule: Q01DX010 (sc), vehicle: saline) was 0 of 3 on day 11. The survivor count (dose: 800.0 mg/kg/injection, schedule: Q01DX010 (sc), vehicle: saline) was 0 of 3 on day 11.

For `Cc1ccc(S(=O)(=O)NC(=O)OC23COCN2COC3)cc1`, the T/C (dose: 400.0 mg/kg/injection, schedule: Q04DX003 (sc), vehicle: saline with Tween-80) was 127 % of control.

In the case of `CC(=O)C(Cl)C(=O)c1c(C)[nH]n(-c2ccccc2)c1=O` (centres undefined), the T/C [4] is reported as 130 % of control, the survivor count [5] is reported as 2 of 5 on day 11 and the survivor count [6] is reported as 0 of 5 on day 11.

`O=C(O)c1cc(C(=O)O)c(C(=O)O)cc1C(=O)O.[NH2-].[NH2-].[NH2-].[NH2-].[Pt+2].[Pt+2]` was tested, and the survivor count (dose: 80.0 mg/kg/injection, schedule: Q04DX003 (ip), vehicle: water) was 1 of 6 on day 11.

For `CCCCNP1(NCCCC)=NP(NCCCC)(NCCCC)=NP(NCCCC)(NCCCC)=NP(NCCCC)(NCCCC)=N1`, the survivor count [2] was 0 of 6 on day 11 and the survivor count [3] was 0 of 6 on day 11.

In the case of `O=c1c(O)c(O)c1=O.[NH2-].[NH2-].[NH2-].[NH2-].[NH2-].[Ru+5]`, the survivor count (dose: 100.0 mg/kg/injection, schedule: Q04DX003 (ip), vehicle: suspension in saline) is reported as 0 of 6 on day 11.

`Cc1ccc2c(c1)C1(C)OC(C=CC1=O)O2` (centres undefined) was tested, and the T/C [4] was 136 % of control, the survivor count [5] was 0 of 6 on day 11 and the survivor count [6] was 0 of 6 on day 11.

For `O=C1C=C(N2CC2)C(=O)C(N2CC2)=C1N1CC1`, the survivor count (dose: 400.0 micrograms/kg/injection, schedule: Q04DX003 (ip), vehicle: saline) was 0 of 6 on day 11 and 1 of 5 on day 11.

In the case of `CN(Cc1cnc2nc(N)nc(N)c2n1)c1ccc(C(=O)N[C@@H](CCC(=O)O)C(=O)O)cc1`, the T/C (dose: 18.0 mg/kg/injection, schedule: Q04DX003 (ip), vehicle: sodium bicarbonate) is reported as 133 % of control.

With `C1CC[N-]CC1.C1CC[N-]CC1.C1CC[N-]CC1.[Cl][Rh]([Cl])[Cl]` the survivor count (dose: 600.0 mg/kg/injection, schedule: Q04DX003 (sc), vehicle: saline) was 0 of 5 on day 11.

With `COc1cc([C@@H]2c3cc4c(cc3[C@@H](OC3OC5CO[C@@H](c6cccs6)OC5C(O)C3O)[C@H]3COC(=O)[C@H]23)OCO4)cc(OC)c1O` (some centres undefined) the survivor count (dose: 8.75 mg/kg/injection, schedule: Q01DX010 (ip), vehicle: saline) was 0 of 6 on day 11, the survivor count (dose: 17.5 mg/kg/injection, schedule: Q01DX010 (ip), vehicle: saline) was 0 of 6 on day 11 and the survivor count (dose: 33.0 mg/kg/injection, schedule: Q01DX010 (ip), vehicle: saline) was 0 of 6 on day 11. The survivor count (dose: 66.0 mg/kg/injection, schedule: Q01DX010 (ip), vehicle: saline) was 0 of 6 on day 11, the survivor count (dose: 132.0 mg/kg/injection, schedule: Q01DX010 (ip), vehicle: saline) was 0 of 6 on day 11 and the survivor count (dose: 264.0 mg/kg/injection, schedule: Q01DX010 (ip), vehicle: saline) was 0 of 6 on day 11.

With `CNC(=O)O/N=C(\CN=[N+]=[N-])C(C)(C)C` the survivor count (dose: 5.0 mg/kg/injection, schedule: Q04DX003 (sc), vehicle: saline) was 0 of 6 on day 11.

In the case of `COc1cc(C(CC(C)=O)c2cc3c(cc2OC(C)=O)OCO3)cc(OC)c1OC` (centres undefined) (tested in a mixture with another compound), the survivor count (dose: 333.33 mg/kg/injection, schedule: Q04DX003 (ip), vehicle: saline with Tween-80) is reported as 0 of 6 on day 11, the survivor count [7] is reported as 0 of 6 on day 11 and the survivor count (dose: 555.55 mg/kg/injection, schedule: Q04DX003 (ip), vehicle: saline with Tween-80) is reported as 1 of 6 on day 11.

With `O=C(Oc1ccccc1)c1cc(O)c(O)c(O)c1` the survivor count [8] was 1 of 6 on day 11 and the survivor count (dose: 1200.0 mg/kg/injection, schedule: Q04DX003 (ip), vehicle: saline) was 0 of 6 on day 11.

For `C=C1C(O)C2OC3(CCC(/C=C/C(C)C4CC5(C)SC5C5(OC(CC(C)(O)C(=O)O)CCC5O)O4)O3)CCC2OC1C(O)CC(C)C1OC2(CCCCO2)CCC1C` (centres undefined), the T/C (dose: 20.0 micrograms/kg/injection, schedule: Q04DX003 (ip), vehicle: saline + alcohol) was 135 % of control, the survivor count (dose: 80.0 micrograms/kg/injection, schedule: Q04DX003 (ip), vehicle: saline + alcohol) was 0 of 6 on day 11 and the survivor count (dose: 160.0 micrograms/kg/injection, schedule: Q04DX003 (ip), vehicle: saline + alcohol) was 0 of 6 on day 11. The survivor count (dose: 320.0 micrograms/kg/injection, schedule: Q04DX003 (ip), vehicle: saline + alcohol) was 0 of 6 on day 11.

In the case of `Cc1ccc(C(=O)NC2C(=O)NC(C(C)C)C(=O)N3CCCC3C(=O)N(C)CC(=O)N(C)C(C(C)C)C(=O)OC2C)c2c1Oc1c(c(C(=O)NC3C(=O)NC(C(C)C)C(=O)N4CCCC4C(=O)N(C)CC(=O)N(C)C(C(C)C)C(=O)OC3C)c3nc(-c4ccccc4)c(=O)oc3c1C)N2` (centres undefined), the survivor count (dose: 2.0 mg/kg/injection, schedule: Q04DX003 (ip), vehicle: water) is reported as 0 of 6 on day 11 and 1 of 6 on day 11, the survivor count (dose: 4.0 mg/kg/injection, schedule: Q04DX003 (ip), vehicle: water) is reported as 0 of 6 on day 11 and 1 of 6 on day 11 and the survivor count (dose: 8.0 mg/kg/injection, schedule: Q04DX003 (ip), vehicle: water) is reported as 0 of 6 on day 11. The survivor count (dose: 16.0 mg/kg/injection, schedule: Q04DX003 (ip), vehicle: water) was 0 of 6 on day 11.

With `O=c1[nH]c(=O)n(C2CC(O)C(CO)O2)cc1F` (centres undefined) the survivor count (dose: 200.0 mg/kg/injection, schedule: Q01DX010 (sc), vehicle: water) was 0 of 3 on day 11 and 1 of 3 on day 11.

For `O=C(NNC(=O)c1cccc(C(=O)NNC(=O)c2ccc(Cl)c(Cl)c2)n1)c1ccc(Cl)c(Cl)c1`, the survivor count [3] was 0 of 6 on day 11.

In the case of `NC(Cc1ccc(N(CCCl)Cc2ccccc2)cc1)C(=O)O` (centres undefined), the survivor count (dose: 200.0 mg/kg/injection, schedule: Q04DX003 (ip), vehicle: saline with Tween-80) is reported as 3 of 6 on day 11, the survivor count [7] is reported as 0 of 6 on day 11 and 3 of 6 on day 11 and the survivor count (dose: 555.56 mg/kg/injection, schedule: Q04DX003 (ip), vehicle: saline with Tween-80) is reported as 0 of 6 on day 11.

With `CSc1ncnc2c1ncn2C1OC(CO)C(O)C1O` (centres undefined) the survivor count (dose: 300.0 mg/kg/injection, schedule: Q04DX003 (sc), vehicle: saline + alcohol) was 0 of 6 on day 11 and the survivor count (dose: 600.0 mg/kg/injection, schedule: Q04DX003 (sc), vehicle: saline + alcohol) was 0 of 6 on day 11.

For `CN(C)CCC(=O)C(=Cc1ccc(O)cc1)C(=O)CCN(C)C`, the survivor count (dose: 300.0 mg/kg/injection, schedule: Q04DX003 (ip), vehicle: saline) was 1 of 6 on day 11 and the survivor count [8] was 0 of 6 on day 11.

For `O=NNc1cccnc1`, the T/C (dose: 50.0 mg/kg/injection, schedule: Q04DX003 (ip), vehicle: water) was 148 % of control, the survivor count (dose: 100.0 mg/kg/injection, schedule: Q04DX003 (ip), vehicle: water) was 2 of 6 on day 11 and 3 of 6 on day 11 and the survivor count (dose: 200.0 mg/kg/injection, schedule: Q04DX003 (ip), vehicle: water) was 0 of 6 on day 11.
